Measurements published in paper doi:10.1101/2024.08.24.609485.
Where two headings read alike, the source gives them in different places. No constants are given. Whether binding was seen depends on the method and setting. Binding seen in cells or lysates may run through a third protein. Some results given as binding are weak or reduced against the parent protein; the word gives no strength. Where a sequence is shown, tags or fusion partners need not be part of it.

Protein sequences, listed by entry. Tags and fused reporters are not part of them.
UniProt Q8IZP0: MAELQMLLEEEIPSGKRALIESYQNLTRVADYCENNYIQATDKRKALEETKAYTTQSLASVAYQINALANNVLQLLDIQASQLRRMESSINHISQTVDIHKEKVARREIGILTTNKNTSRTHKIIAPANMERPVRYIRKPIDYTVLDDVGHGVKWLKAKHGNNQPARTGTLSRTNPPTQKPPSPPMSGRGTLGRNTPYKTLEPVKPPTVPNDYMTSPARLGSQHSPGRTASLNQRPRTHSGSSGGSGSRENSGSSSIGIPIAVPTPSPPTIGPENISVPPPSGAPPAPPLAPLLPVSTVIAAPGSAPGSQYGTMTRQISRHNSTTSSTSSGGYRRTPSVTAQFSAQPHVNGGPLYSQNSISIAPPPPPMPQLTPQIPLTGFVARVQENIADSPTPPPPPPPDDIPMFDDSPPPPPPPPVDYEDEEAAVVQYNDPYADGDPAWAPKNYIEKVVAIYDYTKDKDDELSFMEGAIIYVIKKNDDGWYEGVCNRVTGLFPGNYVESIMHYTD
UniProt Q8N8S7: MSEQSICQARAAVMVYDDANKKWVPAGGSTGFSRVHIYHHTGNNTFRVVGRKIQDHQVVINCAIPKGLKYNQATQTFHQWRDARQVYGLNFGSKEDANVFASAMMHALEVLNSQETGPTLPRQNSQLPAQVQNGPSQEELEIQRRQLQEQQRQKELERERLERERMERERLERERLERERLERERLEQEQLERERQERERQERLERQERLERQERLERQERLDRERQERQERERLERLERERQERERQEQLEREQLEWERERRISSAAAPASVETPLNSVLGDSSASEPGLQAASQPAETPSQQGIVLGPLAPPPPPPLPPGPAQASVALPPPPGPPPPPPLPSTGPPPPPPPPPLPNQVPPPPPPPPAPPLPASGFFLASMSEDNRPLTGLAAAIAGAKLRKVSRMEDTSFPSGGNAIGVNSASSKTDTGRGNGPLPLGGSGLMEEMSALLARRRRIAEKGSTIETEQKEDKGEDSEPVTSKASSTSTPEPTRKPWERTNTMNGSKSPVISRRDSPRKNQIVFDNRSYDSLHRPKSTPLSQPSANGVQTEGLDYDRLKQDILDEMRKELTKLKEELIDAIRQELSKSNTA
UniProt O00401: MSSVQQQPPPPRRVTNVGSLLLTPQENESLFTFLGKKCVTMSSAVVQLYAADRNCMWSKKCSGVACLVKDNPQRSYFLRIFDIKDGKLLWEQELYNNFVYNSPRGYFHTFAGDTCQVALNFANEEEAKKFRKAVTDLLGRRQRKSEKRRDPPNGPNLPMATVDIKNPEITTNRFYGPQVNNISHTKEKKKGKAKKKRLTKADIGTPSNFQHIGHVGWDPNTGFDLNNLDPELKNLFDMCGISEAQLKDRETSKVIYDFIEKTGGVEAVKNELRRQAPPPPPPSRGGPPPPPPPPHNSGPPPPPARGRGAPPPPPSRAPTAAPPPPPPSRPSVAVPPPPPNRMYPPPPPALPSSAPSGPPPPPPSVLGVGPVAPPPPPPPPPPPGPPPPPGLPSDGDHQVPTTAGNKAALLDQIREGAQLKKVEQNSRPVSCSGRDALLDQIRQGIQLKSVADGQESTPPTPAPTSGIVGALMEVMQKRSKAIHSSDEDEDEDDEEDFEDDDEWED
UniProt O97758: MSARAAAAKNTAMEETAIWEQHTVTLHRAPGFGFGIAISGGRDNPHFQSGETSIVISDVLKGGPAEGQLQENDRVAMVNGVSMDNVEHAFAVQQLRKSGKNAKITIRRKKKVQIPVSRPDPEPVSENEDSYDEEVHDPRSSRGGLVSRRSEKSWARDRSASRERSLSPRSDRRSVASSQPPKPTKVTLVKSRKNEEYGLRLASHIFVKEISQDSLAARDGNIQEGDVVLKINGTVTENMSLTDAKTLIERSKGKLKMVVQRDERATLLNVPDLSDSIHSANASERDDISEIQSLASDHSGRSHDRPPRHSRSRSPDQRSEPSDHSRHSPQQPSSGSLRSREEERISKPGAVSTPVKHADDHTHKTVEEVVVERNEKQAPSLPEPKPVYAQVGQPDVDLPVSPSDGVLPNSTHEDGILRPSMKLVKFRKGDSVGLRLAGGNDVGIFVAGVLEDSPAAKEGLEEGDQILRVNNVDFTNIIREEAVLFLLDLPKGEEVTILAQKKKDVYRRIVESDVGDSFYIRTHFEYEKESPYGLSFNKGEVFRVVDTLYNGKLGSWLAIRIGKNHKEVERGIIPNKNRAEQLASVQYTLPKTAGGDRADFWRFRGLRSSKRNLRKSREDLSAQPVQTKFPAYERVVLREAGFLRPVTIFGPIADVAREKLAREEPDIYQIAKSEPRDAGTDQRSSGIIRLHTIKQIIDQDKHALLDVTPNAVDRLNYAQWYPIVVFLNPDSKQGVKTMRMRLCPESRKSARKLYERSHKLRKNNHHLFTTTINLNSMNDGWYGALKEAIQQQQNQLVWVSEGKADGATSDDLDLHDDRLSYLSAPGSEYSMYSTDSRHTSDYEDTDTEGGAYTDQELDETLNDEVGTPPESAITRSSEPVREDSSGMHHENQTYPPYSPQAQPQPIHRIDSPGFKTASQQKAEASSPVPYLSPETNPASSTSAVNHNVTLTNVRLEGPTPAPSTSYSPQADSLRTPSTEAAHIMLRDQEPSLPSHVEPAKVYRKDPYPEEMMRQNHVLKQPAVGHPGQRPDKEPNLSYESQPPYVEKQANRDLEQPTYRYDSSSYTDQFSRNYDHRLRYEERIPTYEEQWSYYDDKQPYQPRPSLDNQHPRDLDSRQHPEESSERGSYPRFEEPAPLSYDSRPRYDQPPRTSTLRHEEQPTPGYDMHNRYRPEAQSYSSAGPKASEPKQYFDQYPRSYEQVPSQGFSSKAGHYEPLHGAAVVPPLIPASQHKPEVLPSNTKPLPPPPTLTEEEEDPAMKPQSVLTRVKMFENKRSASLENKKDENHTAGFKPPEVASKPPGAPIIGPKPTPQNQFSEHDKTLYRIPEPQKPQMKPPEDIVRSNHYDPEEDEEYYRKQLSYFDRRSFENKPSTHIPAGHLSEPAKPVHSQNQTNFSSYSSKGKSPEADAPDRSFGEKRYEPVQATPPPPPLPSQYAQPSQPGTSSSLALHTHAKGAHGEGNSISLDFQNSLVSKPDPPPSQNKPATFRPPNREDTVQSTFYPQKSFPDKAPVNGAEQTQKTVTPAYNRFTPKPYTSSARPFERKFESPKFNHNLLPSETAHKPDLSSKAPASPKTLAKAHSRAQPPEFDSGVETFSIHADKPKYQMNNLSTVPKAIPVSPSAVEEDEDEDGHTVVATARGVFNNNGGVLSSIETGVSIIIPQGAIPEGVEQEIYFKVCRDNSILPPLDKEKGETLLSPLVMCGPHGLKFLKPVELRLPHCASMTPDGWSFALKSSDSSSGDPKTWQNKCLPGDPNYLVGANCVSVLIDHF
UniProt A0A8I3PHM6: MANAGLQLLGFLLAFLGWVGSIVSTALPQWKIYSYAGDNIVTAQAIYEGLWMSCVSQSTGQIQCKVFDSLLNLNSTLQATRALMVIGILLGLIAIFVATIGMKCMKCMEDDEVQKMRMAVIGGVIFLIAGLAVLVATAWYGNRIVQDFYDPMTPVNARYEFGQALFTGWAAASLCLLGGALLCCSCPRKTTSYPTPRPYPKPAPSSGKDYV
UniProt O60610: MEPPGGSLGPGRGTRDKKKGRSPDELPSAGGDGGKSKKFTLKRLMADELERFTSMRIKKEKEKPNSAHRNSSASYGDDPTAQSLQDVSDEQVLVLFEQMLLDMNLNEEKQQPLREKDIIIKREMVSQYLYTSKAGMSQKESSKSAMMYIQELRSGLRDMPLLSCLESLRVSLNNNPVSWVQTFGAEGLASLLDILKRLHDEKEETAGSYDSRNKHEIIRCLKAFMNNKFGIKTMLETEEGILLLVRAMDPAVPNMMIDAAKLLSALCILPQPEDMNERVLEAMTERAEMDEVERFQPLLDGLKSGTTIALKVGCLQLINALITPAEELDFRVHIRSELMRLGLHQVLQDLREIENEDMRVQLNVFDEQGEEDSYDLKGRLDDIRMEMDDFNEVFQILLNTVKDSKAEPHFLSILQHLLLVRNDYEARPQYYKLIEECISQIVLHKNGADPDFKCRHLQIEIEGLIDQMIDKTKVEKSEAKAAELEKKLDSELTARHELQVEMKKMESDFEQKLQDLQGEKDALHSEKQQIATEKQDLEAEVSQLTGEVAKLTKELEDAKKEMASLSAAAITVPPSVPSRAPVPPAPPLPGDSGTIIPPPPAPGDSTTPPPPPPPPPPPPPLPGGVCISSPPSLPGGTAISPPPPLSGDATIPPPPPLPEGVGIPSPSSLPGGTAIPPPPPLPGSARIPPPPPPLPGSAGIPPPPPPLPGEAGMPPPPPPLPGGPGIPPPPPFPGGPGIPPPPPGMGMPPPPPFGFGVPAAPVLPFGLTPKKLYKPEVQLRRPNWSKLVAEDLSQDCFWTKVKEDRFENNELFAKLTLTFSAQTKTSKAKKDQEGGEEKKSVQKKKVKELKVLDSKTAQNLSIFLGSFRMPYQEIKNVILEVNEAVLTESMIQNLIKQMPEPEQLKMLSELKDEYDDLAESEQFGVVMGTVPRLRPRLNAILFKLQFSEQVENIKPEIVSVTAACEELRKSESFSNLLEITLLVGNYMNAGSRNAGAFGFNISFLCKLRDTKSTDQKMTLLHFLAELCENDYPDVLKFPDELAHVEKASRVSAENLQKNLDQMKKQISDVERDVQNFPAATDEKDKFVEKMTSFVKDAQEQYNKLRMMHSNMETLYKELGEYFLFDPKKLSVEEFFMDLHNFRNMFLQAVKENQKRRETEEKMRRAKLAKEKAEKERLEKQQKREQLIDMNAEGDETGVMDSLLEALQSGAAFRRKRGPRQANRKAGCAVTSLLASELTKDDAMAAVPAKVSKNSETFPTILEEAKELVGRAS

T1: GFP-ARHGAP12a (UniProt Q8IWW6)
T1 sequence: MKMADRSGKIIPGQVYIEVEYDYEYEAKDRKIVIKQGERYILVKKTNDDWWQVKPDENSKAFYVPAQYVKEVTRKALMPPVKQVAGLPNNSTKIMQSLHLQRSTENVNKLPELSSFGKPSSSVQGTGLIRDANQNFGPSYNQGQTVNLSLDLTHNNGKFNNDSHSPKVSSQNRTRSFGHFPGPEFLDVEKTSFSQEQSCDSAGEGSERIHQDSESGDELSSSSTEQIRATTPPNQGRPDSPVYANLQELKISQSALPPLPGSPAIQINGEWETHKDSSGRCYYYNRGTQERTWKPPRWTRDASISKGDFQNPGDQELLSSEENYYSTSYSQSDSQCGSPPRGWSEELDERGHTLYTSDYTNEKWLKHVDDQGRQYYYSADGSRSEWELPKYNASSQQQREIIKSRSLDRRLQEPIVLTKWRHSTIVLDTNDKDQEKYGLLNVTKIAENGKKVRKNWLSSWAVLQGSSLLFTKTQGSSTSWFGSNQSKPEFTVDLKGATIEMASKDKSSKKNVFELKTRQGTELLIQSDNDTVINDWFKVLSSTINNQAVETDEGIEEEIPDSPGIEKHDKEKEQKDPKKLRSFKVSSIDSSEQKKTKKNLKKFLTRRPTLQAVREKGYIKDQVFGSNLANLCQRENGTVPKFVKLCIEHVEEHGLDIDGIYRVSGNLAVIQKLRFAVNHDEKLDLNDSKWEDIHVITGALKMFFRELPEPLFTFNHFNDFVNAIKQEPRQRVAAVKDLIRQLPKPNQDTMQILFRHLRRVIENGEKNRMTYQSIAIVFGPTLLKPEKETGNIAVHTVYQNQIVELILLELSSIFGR

T2: GST-SH3 (UniProt Q8IWW6)
T2 sequence: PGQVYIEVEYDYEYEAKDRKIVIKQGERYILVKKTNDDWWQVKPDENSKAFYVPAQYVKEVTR


Key:
GFP-ARHGAP12a [1] = target: T1, GFP-ARHGAP12a; experiment: co-IP
GST-SH3 = target: T2, GST-SH3; experiment: pull-down
GFP-ARHGAP12a [2] = target: T1, GFP-ARHGAP12a; experiment: co-IP; remark: listed apart in the source

binding (GFP-ARHGAP12a [1])	binding (GST-SH3)	binding (GFP-ARHGAP12a [2])	Molecule
binds	–	–	Abi1 (endogenous, 293T) (from UniProt Q8IZP0 1-508)
no binding	–	–	Mena (endogenous, 293T) (from UniProt Q8N8S7 1-591)
binds	–	–	N-WASP (endogenous, 293T) (from UniProt O00401 1-505)
binds	–	–	ZO-1 (endogenous, MDCK-II) (from UniProt O97758 1-1769)
no binding	–	–	claudin-1 (endogenous, MDCK-II) (from UniProt A0A8I3PHM6 1-211)
no binding	–	–	mDia1 (endogenous, 293T) (from UniProt O60610 1-1272)
–	binds	binds	ZO-2 (endogenous, MDCK-II) (protein, UniProt Q95168 1-1174) MEELIWEQYTVTLQKDSKRGFGIAVSGGRDNPHFENGETSIVISDVLPGGPADGLLQENDRVVMVNGTPMEDVLHSFAVQQLRKSGKIAAIVVKRPRKVQLAPPQGSLPVDEDDRAFEVMDEFDGRSARSGYSERSRRSSHGGRSRSWEDSPERGRPHERAWSQERERSRGRSLERGLDHDDDYRRPRERSRGRSLERGLDHDDDYGRPGERSHGMSTDRGYDRGYDRGYDRGYDRTYSPEAEYGRRTQPDARHAGSRSRSREHLRSRSPSPELRGRPDHAGQPDSDRPIGVLLMKSKANEEYGLRLGSQIFIKQMTRTALATKDGNLHEGDIILKINGTVTENMSLTDARKLIEKSRGKLQLVVLRDSKQTLINIPSLNDSDSEIEDISEIESNRSFSPEERRQQYSDYDYHSSNEKLKERPNSREDMQNRWSRMGATPTPFKSMGDIASVVGTENSKEPRYQEEPPAPQPKAAPRTFLRPSPEDEAIYGPNTKMVRFKKGDSVGLRLAGGNDVGIFVAGIQEGTSAEQEGLQEGDQILKVNTQDFRGLVREDAVLYLLEIPKGEMVTILAQSRADVYRDILACGRGDSFFIRSHFECEKETPQSLAFSRGEVFRVVDTLYDGKLGHWLAVRIGNELEKGLIPNKSRAEQMASVQNAQRDNAGDRADFWRMRGQRSGMKKNLRKSREDLTAAVSVSTKFPAYERVLLREAGFKRPVVLFGPIADIALEKLANELPDLFQTAKTEPKDAGSEKSSGVVRLNTVRQIIEQDKHALLDVTPKAVDLLNYTQWFPIVIFFNPDSRQGVKTMRQRLNPTSNKSSRKLYDQANKLKKTCAHLFTATINLNSANDSWFGSLKDTIQHQQGEAVWVSEGKMEGMDDDPEDRMSYLTAMGADYLSCDSRLISDFEDTDGEGGAYTDNELDEPAEEPLVSSITRSSEPVQHEESIRKPSPEPRAQMRRAASRDQLRDSSPPPAFKPEPPKAKTQNREESFDISRSHDYKSNPSAVAGNEVSGASTRSCPPPIAAKPSFGRSILKPSTPVPSPESEEVGEGSEEQEGAPKSVLGKVKIFEKMDHKARLQRMQELQEAQNARIEIAQKHPDIYAVPIKTHKPDPGLSQHTSSRPPEPQKGPSRLYQDPRGSYGSDAEEEEYRQQLSEHSKRGYYSQPSRYRDTEL
